Measured values: patent US8039464B2, “Muscarinic antagonists with PARP and SIR modulating activity as agents for inflammatory diseases” (ProteoSys AG, priority 2004, dated 2011)

Target: T1, SIR-2 (Mus musculus, UniProt Q923E4)
T1 construct: Using a raw extract from murine embryonic stem cells; host or cells: murine embryonic stem cells (raw extract)
T1 sequence (Q923E4 2-737 limits assumed): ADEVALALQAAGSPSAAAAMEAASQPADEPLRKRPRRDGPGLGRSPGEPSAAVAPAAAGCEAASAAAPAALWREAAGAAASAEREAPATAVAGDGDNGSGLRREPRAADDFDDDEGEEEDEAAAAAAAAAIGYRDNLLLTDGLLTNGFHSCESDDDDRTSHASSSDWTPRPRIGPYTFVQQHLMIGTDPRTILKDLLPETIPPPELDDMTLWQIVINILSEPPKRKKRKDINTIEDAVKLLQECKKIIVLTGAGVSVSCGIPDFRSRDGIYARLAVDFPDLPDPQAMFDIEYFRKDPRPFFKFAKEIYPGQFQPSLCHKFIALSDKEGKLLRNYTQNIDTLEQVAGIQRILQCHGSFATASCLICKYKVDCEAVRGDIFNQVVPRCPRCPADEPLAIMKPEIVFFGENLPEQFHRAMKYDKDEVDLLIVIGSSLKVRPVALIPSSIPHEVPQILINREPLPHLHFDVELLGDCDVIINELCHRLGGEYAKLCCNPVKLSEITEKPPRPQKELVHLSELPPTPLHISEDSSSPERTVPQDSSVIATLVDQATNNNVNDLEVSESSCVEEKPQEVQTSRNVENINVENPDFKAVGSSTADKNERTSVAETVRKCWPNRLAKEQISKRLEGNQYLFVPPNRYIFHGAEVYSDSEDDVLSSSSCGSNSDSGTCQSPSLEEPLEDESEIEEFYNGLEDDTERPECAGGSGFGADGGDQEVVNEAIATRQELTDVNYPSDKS
Experiment: SIR2 activity assay (CycLex SIR2 Assay kit)
Format: biochemical, murine
Details: read-out: IC50 SIR-2 inhibition
Source text: For measurements of SIR2 activities, the quantitative test kit for NAD-dependent histone deacetylase activity CycLex® SIR2 Assay kit (Cat# CY-1151) was used according to instructions of manufacturer (CycLex Co., Ltd. 1063-103 Ohara, Tera-Sawaoka Ina, Nagano 396-0002 Japan). All substances tested in the SIR assay were cross-checked for their influence on the lysyl-endopeptidase. For this control an already deacetylated substrate peptide was used in order to measure directly lysyl-endopeptidase activity.
For measurements of SIR2 activities, the quantitative test kit for NAD-dependent histone deacetylase activity CycLex® SIR2 Assay kit (Cat# CY-1151) was used according to instructions of manufacturer (CycLex Co., Ltd. 1063-103 Ohara, Tera-Sawaoka Ina, Nagano 396-0002 Japan).

Work on `CN1CCN(CC(=O)N2c3ccccc3C(=O)Nc3cccnc32)CC1` [Pirenzepine, 5,11-dihydro-11[(4-methyl-1-piperazinyl)-acetyl]-6H-pyrido-[2,3-b]-[1,4]benzodiazepine-6-one, reference compound] yielded an IC50 of 1 to 5 mM.
